Source: paper doi:10.1101/2023.07.20.549950
The exact form of at least one protein or probe is not confirmed. Tags and fusion partners may be left off the protein sequences shown.

Biological target: T1, RBM15 RRM2 (UniProt Q96T37)
T1 sequence (looked up, limits assumed): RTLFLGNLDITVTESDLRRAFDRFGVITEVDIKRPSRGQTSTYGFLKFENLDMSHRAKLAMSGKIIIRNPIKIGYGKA
Experiment: filter binding

Question: For “GGUUCUUGAAAAGAGGACC [FIRRE RRD stem-loop (19nt)]”, which Kd is on record?
Answer: > 1.5 µM

Question: How did the Kd turn out when “GGCCAACACUCUGGCCCAUCGGGGUGACGGCC [XIST A-repeat stem-loop (32nt)]” was run?
Answer: > 1.5 µM
